Results are given in words; binding and its absence hold for the method and conditions named. Some entries that bind do so weakly or less than the wild type.
Columns and labels:
[1] = target: T1, Simplagrin (Simulium platelet aggregation inhibitor), recombinant (Simulium nigrimanum) (UniProt D1FQ14); test: SPR; initial screening: Simplagrin immobilised on a CM5 chip, analytes injected for 120 s at 20 µL/min, dissociation 400 s; HBS-P (10 mM Hepes pH 7.4, 150 mM NaCl, 0.005% P20); both purified
T1 sequence: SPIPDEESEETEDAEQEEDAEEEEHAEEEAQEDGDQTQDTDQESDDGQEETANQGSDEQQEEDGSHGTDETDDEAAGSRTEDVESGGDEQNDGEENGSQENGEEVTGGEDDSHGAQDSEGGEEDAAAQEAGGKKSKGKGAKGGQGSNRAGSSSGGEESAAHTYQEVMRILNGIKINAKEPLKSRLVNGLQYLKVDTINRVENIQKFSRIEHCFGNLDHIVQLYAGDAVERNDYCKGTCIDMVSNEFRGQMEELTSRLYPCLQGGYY

The chains behind the UniProt entries cited, without tags or fusion partners. Where a name states a change or a piece, a line headed by the entry shows the natural chain unless it says otherwise. Residues count along the entry.
UniProt P02461, residues 154-1221: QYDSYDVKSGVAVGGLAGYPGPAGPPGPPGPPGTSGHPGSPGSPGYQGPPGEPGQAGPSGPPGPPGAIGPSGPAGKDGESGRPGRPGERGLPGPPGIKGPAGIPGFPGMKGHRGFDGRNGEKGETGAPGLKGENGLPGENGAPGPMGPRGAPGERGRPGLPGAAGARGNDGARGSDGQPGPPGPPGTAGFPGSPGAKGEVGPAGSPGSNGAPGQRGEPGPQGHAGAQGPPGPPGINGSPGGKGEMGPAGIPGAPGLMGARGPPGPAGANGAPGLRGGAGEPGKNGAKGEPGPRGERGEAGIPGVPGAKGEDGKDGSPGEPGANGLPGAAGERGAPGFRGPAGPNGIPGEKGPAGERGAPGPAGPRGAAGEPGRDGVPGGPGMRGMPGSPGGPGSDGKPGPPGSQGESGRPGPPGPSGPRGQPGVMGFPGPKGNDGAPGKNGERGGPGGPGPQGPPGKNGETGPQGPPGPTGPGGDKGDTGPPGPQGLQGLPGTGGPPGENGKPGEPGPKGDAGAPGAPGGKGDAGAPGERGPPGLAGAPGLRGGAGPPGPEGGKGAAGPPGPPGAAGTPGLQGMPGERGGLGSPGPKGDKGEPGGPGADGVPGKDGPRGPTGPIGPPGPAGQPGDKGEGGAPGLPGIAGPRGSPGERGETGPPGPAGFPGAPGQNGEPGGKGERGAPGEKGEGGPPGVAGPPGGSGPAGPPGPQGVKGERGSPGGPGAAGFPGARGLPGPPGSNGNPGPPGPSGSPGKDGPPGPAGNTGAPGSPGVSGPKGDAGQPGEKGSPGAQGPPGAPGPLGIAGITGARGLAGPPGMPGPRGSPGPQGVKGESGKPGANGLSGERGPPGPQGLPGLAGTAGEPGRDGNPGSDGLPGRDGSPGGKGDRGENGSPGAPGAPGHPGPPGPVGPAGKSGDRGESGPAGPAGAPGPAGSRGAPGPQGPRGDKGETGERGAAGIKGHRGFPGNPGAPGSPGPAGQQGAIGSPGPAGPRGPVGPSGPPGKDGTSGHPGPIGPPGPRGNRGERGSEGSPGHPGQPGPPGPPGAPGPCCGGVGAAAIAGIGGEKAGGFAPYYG
UniProt P04275, residues 764-2813: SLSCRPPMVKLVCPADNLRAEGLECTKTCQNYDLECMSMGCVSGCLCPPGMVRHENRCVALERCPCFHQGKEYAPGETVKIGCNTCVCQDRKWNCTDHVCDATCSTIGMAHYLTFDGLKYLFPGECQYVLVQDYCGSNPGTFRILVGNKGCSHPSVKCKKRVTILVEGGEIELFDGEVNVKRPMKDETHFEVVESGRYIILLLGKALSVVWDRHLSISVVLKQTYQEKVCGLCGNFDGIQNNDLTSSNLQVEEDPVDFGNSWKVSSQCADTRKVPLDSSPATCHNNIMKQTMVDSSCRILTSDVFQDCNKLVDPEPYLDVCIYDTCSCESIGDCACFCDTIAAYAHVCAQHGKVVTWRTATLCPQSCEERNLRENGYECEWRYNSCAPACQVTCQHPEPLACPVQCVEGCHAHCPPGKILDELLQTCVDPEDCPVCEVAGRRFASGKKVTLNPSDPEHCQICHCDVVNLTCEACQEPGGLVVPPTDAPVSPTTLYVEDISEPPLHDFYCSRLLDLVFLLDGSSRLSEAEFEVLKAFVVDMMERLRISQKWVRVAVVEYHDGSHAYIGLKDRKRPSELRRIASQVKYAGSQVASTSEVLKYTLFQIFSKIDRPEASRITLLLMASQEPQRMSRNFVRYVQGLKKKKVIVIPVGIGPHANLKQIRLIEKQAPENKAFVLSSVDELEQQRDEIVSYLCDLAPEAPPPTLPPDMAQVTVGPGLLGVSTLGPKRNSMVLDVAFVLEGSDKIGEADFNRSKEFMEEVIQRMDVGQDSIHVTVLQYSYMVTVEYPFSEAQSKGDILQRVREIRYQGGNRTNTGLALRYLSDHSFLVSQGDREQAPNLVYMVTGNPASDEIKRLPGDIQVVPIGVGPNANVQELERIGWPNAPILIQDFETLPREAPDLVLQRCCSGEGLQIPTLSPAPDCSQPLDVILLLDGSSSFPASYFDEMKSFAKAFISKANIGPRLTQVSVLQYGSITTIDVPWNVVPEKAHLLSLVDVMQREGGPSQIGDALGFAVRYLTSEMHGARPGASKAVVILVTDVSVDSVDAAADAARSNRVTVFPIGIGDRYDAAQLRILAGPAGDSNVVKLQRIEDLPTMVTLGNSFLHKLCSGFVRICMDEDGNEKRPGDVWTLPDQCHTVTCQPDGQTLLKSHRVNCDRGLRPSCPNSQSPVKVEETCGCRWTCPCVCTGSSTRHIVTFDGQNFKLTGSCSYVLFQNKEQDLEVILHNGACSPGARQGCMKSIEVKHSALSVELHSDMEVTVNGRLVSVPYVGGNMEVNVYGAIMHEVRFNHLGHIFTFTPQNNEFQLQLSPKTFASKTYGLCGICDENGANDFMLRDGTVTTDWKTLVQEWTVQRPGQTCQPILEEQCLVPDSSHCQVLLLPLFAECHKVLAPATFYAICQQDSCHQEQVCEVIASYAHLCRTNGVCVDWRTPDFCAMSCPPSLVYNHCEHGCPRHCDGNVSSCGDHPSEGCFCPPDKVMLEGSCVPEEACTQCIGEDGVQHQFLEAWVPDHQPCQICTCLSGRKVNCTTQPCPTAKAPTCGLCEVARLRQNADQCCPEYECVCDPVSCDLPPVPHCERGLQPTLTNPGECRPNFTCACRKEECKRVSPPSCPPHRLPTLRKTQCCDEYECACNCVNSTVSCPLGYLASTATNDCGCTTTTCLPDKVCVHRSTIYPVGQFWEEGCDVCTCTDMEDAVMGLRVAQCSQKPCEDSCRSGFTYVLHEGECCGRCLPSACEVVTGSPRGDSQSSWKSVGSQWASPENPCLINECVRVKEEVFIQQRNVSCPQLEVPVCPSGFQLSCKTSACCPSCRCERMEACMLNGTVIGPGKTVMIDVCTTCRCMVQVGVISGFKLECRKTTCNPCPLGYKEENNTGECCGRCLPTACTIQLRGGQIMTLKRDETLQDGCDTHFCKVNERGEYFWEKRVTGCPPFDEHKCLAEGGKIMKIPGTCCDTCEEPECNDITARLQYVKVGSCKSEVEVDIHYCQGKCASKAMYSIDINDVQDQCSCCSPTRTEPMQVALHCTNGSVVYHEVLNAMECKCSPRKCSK
UniProt P02452: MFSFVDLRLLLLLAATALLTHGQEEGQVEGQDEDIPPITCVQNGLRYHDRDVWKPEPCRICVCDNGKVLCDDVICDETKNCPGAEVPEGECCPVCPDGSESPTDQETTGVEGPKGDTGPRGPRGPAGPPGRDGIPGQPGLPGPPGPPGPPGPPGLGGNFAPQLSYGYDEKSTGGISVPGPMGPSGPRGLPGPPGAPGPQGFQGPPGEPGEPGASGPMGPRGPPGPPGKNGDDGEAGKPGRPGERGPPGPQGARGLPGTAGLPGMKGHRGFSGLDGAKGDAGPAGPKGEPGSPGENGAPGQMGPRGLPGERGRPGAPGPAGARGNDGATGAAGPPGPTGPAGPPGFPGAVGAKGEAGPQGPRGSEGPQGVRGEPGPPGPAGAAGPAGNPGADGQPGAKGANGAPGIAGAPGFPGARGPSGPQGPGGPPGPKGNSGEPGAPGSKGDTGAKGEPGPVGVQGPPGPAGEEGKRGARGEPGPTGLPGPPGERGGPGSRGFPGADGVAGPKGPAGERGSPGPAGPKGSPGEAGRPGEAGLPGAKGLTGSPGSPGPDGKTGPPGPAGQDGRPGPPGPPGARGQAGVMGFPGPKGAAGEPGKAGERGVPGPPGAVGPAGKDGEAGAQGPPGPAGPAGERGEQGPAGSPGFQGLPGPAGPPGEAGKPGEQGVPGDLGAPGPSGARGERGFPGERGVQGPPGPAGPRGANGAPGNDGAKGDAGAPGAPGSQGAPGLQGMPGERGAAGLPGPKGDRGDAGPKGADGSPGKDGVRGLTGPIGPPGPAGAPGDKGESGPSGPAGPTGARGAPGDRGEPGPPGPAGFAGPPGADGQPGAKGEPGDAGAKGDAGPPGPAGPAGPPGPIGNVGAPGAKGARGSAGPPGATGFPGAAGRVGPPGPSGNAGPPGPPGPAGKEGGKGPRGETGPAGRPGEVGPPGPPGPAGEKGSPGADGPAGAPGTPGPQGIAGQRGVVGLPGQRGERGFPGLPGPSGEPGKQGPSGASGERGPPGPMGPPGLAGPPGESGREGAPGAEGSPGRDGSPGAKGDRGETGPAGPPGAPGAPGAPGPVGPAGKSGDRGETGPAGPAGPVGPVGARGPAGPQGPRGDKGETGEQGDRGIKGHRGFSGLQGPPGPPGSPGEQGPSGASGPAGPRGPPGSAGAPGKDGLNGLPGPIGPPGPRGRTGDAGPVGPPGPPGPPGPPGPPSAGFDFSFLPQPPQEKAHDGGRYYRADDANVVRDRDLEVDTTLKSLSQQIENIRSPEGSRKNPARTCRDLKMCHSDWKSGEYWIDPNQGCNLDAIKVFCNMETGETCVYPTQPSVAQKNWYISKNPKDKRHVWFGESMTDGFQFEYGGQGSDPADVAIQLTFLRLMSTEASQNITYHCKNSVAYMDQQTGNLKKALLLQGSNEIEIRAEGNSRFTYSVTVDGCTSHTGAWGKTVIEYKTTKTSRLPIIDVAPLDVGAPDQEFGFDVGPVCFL
UniProt P04004, residues 20-478: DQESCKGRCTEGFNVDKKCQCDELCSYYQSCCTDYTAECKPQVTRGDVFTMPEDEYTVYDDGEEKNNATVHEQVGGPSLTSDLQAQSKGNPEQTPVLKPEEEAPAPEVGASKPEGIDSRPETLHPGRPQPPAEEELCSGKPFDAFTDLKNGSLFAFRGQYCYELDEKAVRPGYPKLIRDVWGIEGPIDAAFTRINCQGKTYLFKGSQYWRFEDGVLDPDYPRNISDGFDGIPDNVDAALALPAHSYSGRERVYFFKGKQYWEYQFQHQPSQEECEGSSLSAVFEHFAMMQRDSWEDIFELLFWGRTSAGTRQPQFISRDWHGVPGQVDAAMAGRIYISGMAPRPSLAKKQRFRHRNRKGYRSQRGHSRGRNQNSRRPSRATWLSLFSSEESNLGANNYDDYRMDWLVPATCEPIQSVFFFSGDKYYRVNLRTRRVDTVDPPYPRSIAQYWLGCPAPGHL

[2] = target: T1, Simplagrin (Simulium platelet aggregation inhibitor), recombinant (Simulium nigrimanum); test: SPR; Simplagrin immobilised on CM5, synthetic collagen-derived peptides or collagen type I flowed for 90 s at 20 µL/min; both purified
[3] = target: T1, Simplagrin (Simulium platelet aggregation inhibitor), recombinant (Simulium nigrimanum); test: SEC-MALS; SEC-MALS-QELS-HPLC, TSK gel G3000PWxl, phosphate buffer pH 7.4 with 308 mM NaCl and 0.5 M urea, 0.5 mL/min; both purified
[4] = target: Soluble human collagen type III (human) (UniProt P02461); test: SPR; collagen type III immobilised; Simplagrin alone or preincubated with saturating concentrations of RGQOGVMGF peptide in HBS-P; both purified
[5] = target: von Willebrand factor (vWF), factor VIII free (UniProt P04275); test: SPR; in solution competition: vWF immobilised on CM5; collagen type I (0.1 µM) or RGQOGVMGF peptide (1 µM) with or without Simplagrin (0.2 µM); both purified
[6] = target: Soluble human collagen type I (human) (UniProt P02452); test: ELISA; solid phase: collagens (25 µg/mL in PBS pH 7.4) coated overnight at 4°C, Simplagrin 0-3 µM in PBS-T for two hours, detected with anti-Simplagrin antibodies; both purified
[7] = target: Soluble human collagen type III (human) (UniProt P02461); test: as above
[8] = target: Soluble human collagen type I (human) (UniProt P02452); test: ELISA; solid phase: 96-well plate coated with collagen type I or RGQOGVMGF peptide, Simplagrin at different concentrations, detected with rabbit anti-Simplagrin antibodies; both purified

## von Willebrand factor (vWF), factor VIII free (from UniProt P04275 764-2813)
[1]
  binding: no binding

## Soluble human collagen type I (from UniProt P02452 162-1218; P08123 80-1119)
[2]
  binding: binds
[1]
  binding: binds

## Vitronectin (from UniProt P04004 20-478)
[1]
  binding: no binding

## Soluble human collagen type III (from UniProt P02461 154-1221)
[1]
  binding: binds

B1: Simplagrin (Simulium platelet aggregation inhibitor), recombinant (natural protein, Simulium nigrimanum, UniProt D1FQ14 21-286, looked up)
chain: SPIPDEESEETEDAEQEEDAEEEEHAEEEAQEDGDQTQDTDQESDDGQEETANQGSDEQQEEDGSHGTDETDDEAAGSRTEDVESGGDEQNDGEENGSQENGEEVTGGEDDSHGAQDSEGGEEDAAAQEAGGKKSKGKGAKGGQGSNRAGSSSGGEESAAHTYQEVMRILNGIKINAKEPLKSRLVNGLQYLKVDTINRVENIQKFSRIEHCFGNLDHIVQLYAGDAVERNDYCKGTCIDMVSNEFRGQMEELTSRLYPCLQGGYY
notes: Simplagrin (cluster Sim-50), salivary gland protein of Simulium nigrimanum; precursor of 286 aa with a predicted signal peptide of 20 aa; the construct holds the mature protein and a 6X-His tag before the stop codon; Synthetic codon optimised gene in the VR2001 TOPO vector; also called Sim-50; recombinant Simplagrin; source: FreeStyle293 F (HEK293) cells, transfected, secreted; purified (Ni2+ …)
[3]
  binding: no binding
[4]
  binding: binds
[5]
  binding: no binding (tested: 0.2 µM)
[6]
  binding: binds
[7]
  binding: binds
[8]
  binding: binds

From paper PMC4055580, “Simplagrin, a Platelet Aggregation Inhibitor from Simulium nigrimanum Salivary Glands Specifically Binds to the Von Willebrand Factor Receptor in Collagen and Inhibits Carotid Thrombus Formation In Vivo” (PLoS Neglected Tropical Diseases, 2014)
